Record: PubChem BioAssay AID720505 (Drosophila RNAi Screening Center, 2013)

Screen: 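Fly regulators or components of the CRAC channel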 (primary screen)
System: Drosophila S2R+ cells
Reagent: long dsRNA against Drosophila genes
Treatment: thapsigargin (2 µM) in calcium-free buffer to empty internal stores, then 2 mM calcium added back
Measurement: 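Fluo-4 signal in 384-well plates read on a FLIPR after thapsigargin (2 µM, calcium-free) store depletion and 2 mM calcium add-back; unnormalised mean endpoint per well; screen run twice, selected wells retested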
Scale: calcium signal and retest calcium signal: higher = more calcium entry after store depletion
Hit rule: 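Knock-downs counted as hits when calcium entry dropped relative to STIM1 positive and Rho1 negative controls present on each plate; roughly 1500 genes called, with reductions of differing size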
Meaning of the calls: active = called as lowering calcium entry; inactive = not called
The deposit covers about 20,000 reagents; this is a random part of those with a known target gene and a result. Of all reagents, about 2,100 (10%) are marked active. 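Raw plate signals without normalisation; calls rest on control-based scores that were not deposited; replicate 2 separates called from uncalled poorly.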 Reagents against one gene are numbered here. Names joined by + are all predicted targets of the reagent. Not stated in the record: the amount of reagent, the time to read-out.

{"target gene": "Csl4", "reagent": 1, "calcium signal, replicate 1": 169, "calcium signal, replicate 2": 150, "activity call": "inactive"}
{"target gene": "Csl4", "reagent": 2, "calcium signal, replicate 1": 72.1, "calcium signal, replicate 2": 121, "activity call": "inactive"}
{"target gene": "PICK1 (Protein interacting with C kinase 1)", "reagent": 1, "calcium signal, replicate 1": 131, "calcium signal, replicate 2": 92.1, "activity call": "inactive"}
{"target gene": "PICK1 (Protein interacting with C kinase 1)", "reagent": 2, "calcium signal, replicate 1": 119, "calcium signal, replicate 2": 122, "activity call": "inactive"}
{"target gene": "SP2353", "reagent": 1, "calcium signal, replicate 1": 109, "calcium signal, replicate 2": 153, "activity call": "inactive"}
{"target gene": "CG14691", "reagent": 1, "calcium signal, replicate 1": 163, "calcium signal, replicate 2": 72.5, "activity call": "inactive"}
{"target gene": "CG11842", "reagent": 1, "calcium signal, replicate 1": 58.4, "calcium signal, replicate 2": 98.1, "activity call": "active"}
{"target gene": "CG4955", "reagent": 1, "calcium signal, replicate 1": 130, "calcium signal, replicate 2": 83.5, "activity call": "inactive"}
{"target gene": "CG3168", "reagent": 1, "calcium signal, replicate 1": 117, "calcium signal, replicate 2": 106, "activity call": "inactive"}
{"target gene": "Spn77Bb + Spn77Bc", "reagent": 1, "calcium signal, replicate 1": 74.4, "calcium signal, replicate 2": 172, "activity call": "inactive"}
{"target gene": "Spn77Bb + Spn77Bc", "reagent": 2, "calcium signal, replicate 1": 85, "calcium signal, replicate 2": 186, "activity call": "inactive"}
{"target gene": "CG18789", "reagent": 1, "calcium signal, replicate 1": 82.3, "calcium signal, replicate 2": 125, "activity call": "inactive"}
{"target gene": "Cog3 (Component of oligomeric golgi complex 3)", "reagent": 1, "calcium signal, replicate 1": 98.5, "calcium signal, replicate 2": 185, "activity call": "inactive"}
{"target gene": "Rs1", "reagent": 1, "calcium signal, replicate 1": 147, "calcium signal, replicate 2": 105, "activity call": "inactive"}
{"target gene": "X11Lbeta", "reagent": 1, "calcium signal, replicate 1": 131, "calcium signal, replicate 2": 87.1, "activity call": "inactive"}
{"target gene": "X11Lbeta", "reagent": 2, "calcium signal, replicate 1": 132, "calcium signal, replicate 2": 88.8, "activity call": "inactive"}
{"target gene": "alpha-Est3 (alpha-Esterase-3)", "reagent": 1, "calcium signal, replicate 1": 101, "calcium signal, replicate 2": 118, "activity call": "inactive"}
{"target gene": "mus301 (mutagen-sensitive 301)", "reagent": 1, "calcium signal, replicate 1": 66.7, "calcium signal, replicate 2": 54.5, "activity call": "active"}
{"target gene": "lace", "reagent": 1, "calcium signal, replicate 1": 100, "calcium signal, replicate 2": 166, "activity call": "inactive"}
{"target gene": "CG2812", "reagent": 1, "calcium signal, replicate 1": 126, "calcium signal, replicate 2": 192, "activity call": "inactive"}
{"target gene": "DCTN5-p25 (Dynactin 5, p25 subunit)", "reagent": 1, "calcium signal, replicate 1": 83.8, "calcium signal, replicate 2": 84.3, "activity call": "inactive"}
{"target gene": "Rad23", "reagent": 1, "calcium signal, replicate 1": 121, "calcium signal, replicate 2": 160, "activity call": "inactive"}
{"target gene": "Rab3-GAP (Rab3 GTPase activating protein)", "reagent": 1, "calcium signal, replicate 1": 109, "calcium signal, replicate 2": 82.8, "activity call": "inactive"}
{"target gene": "CG10725", "reagent": 1, "calcium signal, replicate 1": 95.4, "calcium signal, replicate 2": 70.3, "activity call": "inactive"}
{"target gene": "Sod3 (Superoxide dismutase 3)", "reagent": 1, "calcium signal, replicate 1": 166, "calcium signal, replicate 2": 120, "activity call": "inactive"}
{"target gene": "E(spl)mdelta-HLH (Enhancer of split mdelta, helix-loop-helix)", "reagent": 1, "calcium signal, replicate 1": 207, "calcium signal, replicate 2": 168, "activity call": "inactive"}
{"target gene": "CG13471", "reagent": 1, "calcium signal, replicate 1": 124, "calcium signal, replicate 2": 273, "activity call": "inactive"}
{"target gene": "Fkbp12 (FK506-binding protein 12kD)", "reagent": 1, "calcium signal, replicate 1": 182, "calcium signal, replicate 2": 126, "activity call": "inactive"}
{"target gene": "CG17732", "reagent": 1, "calcium signal, replicate 1": 101, "calcium signal, replicate 2": 120, "activity call": "inactive"}
{"target gene": "CG13590", "reagent": 1, "calcium signal, replicate 1": 121, "calcium signal, replicate 2": 155, "retest calcium signal, replicate 1": 110, "retest calcium signal, replicate 2": 71, "activity call": "inactive"}
{"target gene": "Ten-a (Tenascin accessory)", "reagent": 1, "calcium signal, replicate 1": 92.7, "calcium signal, replicate 2": 83.1, "activity call": "inactive"}
{"target gene": "Ten-a (Tenascin accessory)", "reagent": 2, "calcium signal, replicate 1": 98.5, "calcium signal, replicate 2": 90, "activity call": "inactive"}
{"target gene": "Ten-a (Tenascin accessory)", "reagent": 3, "calcium signal, replicate 1": 124, "calcium signal, replicate 2": 81, "activity call": "inactive"}
{"target gene": "Ten-a (Tenascin accessory)", "reagent": 4, "calcium signal, replicate 1": 118, "calcium signal, replicate 2": 95.2, "activity call": "inactive"}
{"target gene": "Ten-a (Tenascin accessory)", "reagent": 5, "calcium signal, replicate 1": 75.4, "calcium signal, replicate 2": 120, "activity call": "active"}
{"target gene": "Ten-a (Tenascin accessory)", "reagent": 6, "calcium signal, replicate 1": 125, "calcium signal, replicate 2": 88.7, "activity call": "inactive"}
{"target gene": "Ten-a (Tenascin accessory)", "reagent": 7, "calcium signal, replicate 1": 160, "calcium signal, replicate 2": 83.8, "activity call": "inactive"}
{"target gene": "Ten-a (Tenascin accessory)", "reagent": 8, "calcium signal, replicate 1": 124, "calcium signal, replicate 2": 159, "activity call": "inactive"}
